Results reported in US6300470A, “Antibiotic cryptdin peptides and methods of their use” (priority 1999, dated 2001).
Part of at least one peptide drawing is inferred or uncertain, most often the ends. Some ranges recur; such a range may be that of the whole group of compounds. Bridge positions count the residues as written; N and C are the ends. Peptide text beside a SMILES is read from it.

What was measured:
Format in all cases: cell-based
E. coli ML35 = test: radial diffusion assay, E. coli ML35; conditions: 10 mM PIPES pH 7.4; zone of clearing
Procedure: Purified cryptdin peptides were dissolved at 3 to 300 μg/ml in 0.010% acetic acid and activity was examined against E. coli ML35 (ATCC). In the radial diffusion assay, […] peptide solution was transferred into wells formed in plates of 1% agarose buffered with 10 mM PIPES (pH 7.4) and containing 1×10^6 log-phase bacteria grown in trypticase soy broth. After 3 hr at 37° C., the plates were overlayed with 0.8w agarose containing 2× trypticase soy broth and incubated overnight. The antibacterial activities of cryptdin peptides was compared with the activity of rabbit neutrophil defensin NP-1, which was purified from peritoneal exudates as described by Selsted et al. (J. Biol. Chem. 260:4579-4584 (1985), which is incorporated herein by reference). Antibacterial activity was determined by measuring the diameter of learing around each well and plotted as a function of peptide concentration.

[1] = tested on: wild type S. typhimurium (ATCC 10428); test: agar radial diffusion assay, wild type S. typhimurium; conditions: HEPES or PIPES buffer; 100 μg/ml or 300 μg/ml
Procedure: FIGS. 7.A. and 7.B. depict the antimicrobial activity of mouse cryptain 1 (SEQ ID NO: 6). Samples of purified natural mouse cryptdin 1 (FIG. 7.A.) or rabbit NP-1 (FIG. 7.B.) were dissolved in 0.01% acetic acid and pipetted into wells produced in a 0.6, agarose/0.3% tryptone plate containing 1×10^6 log phase bacterial cells. After incubation at 37° C. for 18 hr, antimicrobial activity was evaluated by measuring the diameters of the clear zones. Closed circles denote wild type S. typhimurium; open circles denote the phoP^- mutant. […]
Antibacterial activity was measured in an agar radial diffusion assay (Lehrer et al., supra, 1991b) using wild type S. typhimurium (ATCC 10428) or an isogenic phoP mutant of S. typhimurium (strain CS015 phoP102::Tn10d-Cam, Miller et al., supra, 1989). […]
Purified cryptdin peptides were dissolved at 3 to 300 μg/ml in 0.010% acetic acid and activity was examined against E. coli ML35 (ATCC). […] Antibacterial activity was determined by measuring the diameter of learing around each well and plotted as a function of peptide concentration.

[2] = tested on: trophozoites of the C6 clone of Giardia lamblia WB (ATCC 30957); test: Giardia trophozoite viability by trypan blue exclusion; conditions: 20 μg/ml; 2 hr at 37° C.
E. coli ML35 cells = test: bactericidal assay in suspension, E. coli; conditions: 10 μg peptide/ml in 10 mM PIPES; 15 or 30 min
Procedure: In order to determine whether the effect of the cryptdin peptides against E. coli is bacteriostatic or bacteriocidal, bacterial killing was quantitated as a function of time. Bactericidal asgayg were performed by incubating 1-2×10^6 log-phase bacteria in 10 mM PIPES containing 10 μg peptide/ml. After incubation for 15 or 30 min at 37° C., aliquots were removed, serially diluted and plated on trypticase soy agar. Bactericidal activity was quantitated by counting colonies after overnight incubation at 37° C.
The bactericidal activity of rat cryptdin 1 also was examined. E. coli ML35 cells, S. areus 502A cells or mutant or wild type S. typhimuruim cells were incubated with various concentrations of rat cryptdin 1 or rabbit NP-1.

| Structure (SMILES) | activity against E. coli ML35 relative to cryptdin 2 (E. coli ML35) | inhibiting growth of wild type S. typhimurium compared with NP-1 [1] | reduction of Giardia growth [2] | bactericidal activity against E. coli (E. coli ML35 cells) |
| --- | --- | --- | --- | --- |
| CSCC[C@@H]1NC(=O)[C@H](CCCNC(=N)N)NC(=O)[C@H](CCC(=O)O)NC(=O)[C@H](CCCNC(=N)N)NC(=O)CNC(=O)[C@H](CCCCN)NC(=O)[C@@H]2CSSC[C@@H]3NC(=O)[C@H](CC(C)C)NC(=O)[C@H](CCSC)NC(=O)[C@H](Cc4ccc(O)cc4)NC(=O)[C@H](CC(C)C)NC(=O)[C@H](CC(C)C)NC(=O)[C@H](Cc4c[nH]cn4)NC(=O)CNC(=O)[C@H](CCCCN)NC(=O)[C@H](CCCNC(=N)N)NC(=O)[C@H](CSSC[C@H](NC(=O)[C@H](Cc4ccc(O)cc4)NC(=O)[C@@H](NC(=O)[C@@H](NC(=O)[C@H](CC(C)C)NC(=O)[C@H](CC(=O)O)NC(=O)[C@H](CCCNC(=N)N)NC(=O)[C@@H](N)CC(C)C)C(C)C)CSSC[C@@H](C(=O)N[C@@H](CCCNC(=N)N)C(=O)O)NC3=O)C(=O)N[C@@H](CCCNC(=N)N)C(=O)N[C@@H](C)C(=O)N[C@@H](CCCNC(=N)N)C(=O)NCC(=O)N2)NC(=O)[C@H]([C@@H](C)O)NC(=O)CNC(=O)[C@H](CC(N)=O)NC1=O [cryptdin 6] (H-LRDLVCYCRARGCKGRERMNGTCRKGHLLYMLCCR-OH; disulfide 6-34, 8-23, 13-33) | 3-5 × | – | – | – |
| CSCC[C@@H]1NC(=O)[C@H](CCCNC(=N)N)NC(=O)[C@H](CCC(=O)O)NC(=O)[C@H](CCCNC(=N)N)NC(=O)CNC(=O)[C@H](CCCCN)NC(=O)[C@@H]2CSSC[C@@H]3NC(=O)[C@H](CC(C)C)NC(=O)[C@H]([C@@H](C)O)NC(=O)[C@H](Cc4ccc(O)cc4)NC(=O)[C@H](CC(C)C)NC(=O)[C@H](CC(C)C)NC(=O)[C@H](Cc4c[nH]cn4)NC(=O)CNC(=O)[C@H](CCCCN)NC(=O)[C@H](CCCNC(=N)N)NC(=O)[C@H](CSSC[C@H](NC(=O)[C@H](Cc4ccc(O)cc4)NC(=O)[C@@H](NC(=O)[C@@H](NC(=O)[C@H](CC(C)C)NC(=O)[C@H](CC(=O)O)NC(=O)[C@H](CCCNC(=N)N)NC(=O)[C@@H](N)CC(C)C)C(C)C)CSSC[C@@H](C(=O)N[C@@H](CCCNC(=N)N)C(=O)O)NC3=O)C(=O)N[C@@H](CCCNC(=N)N)C(=O)N[C@@H](CO)C(=O)N[C@@H](CCCNC(=N)N)C(=O)NCC(=O)N2)NC(=O)[C@H]([C@@H](C)O)NC(=O)CNC(=O)[C@H](CC(N)=O)NC1=O [cryptdin 1] (H-LRDLVCYCRSRGCKGRERMNGTCRKGHLLYTLCCR-OH; disulfide 6-34, 8-23, 13-33) | 3-5 × | as effective as NP-1 | – | – |
| CSCC[C@@H]1NC(=O)[C@H](CCCNC(=N)N)NC(=O)[C@H](CCC(=O)O)NC(=O)[C@H](CCCNC(=N)N)NC(=O)[C@H](CCCNC(=N)N)NC(=O)[C@H](CCCCN)NC(=O)[C@@H]2CSSC[C@@H]3NC(=O)[C@H](CC(C)C)NC(=O)[C@H]([C@@H](C)O)NC(=O)[C@H](Cc4ccc(O)cc4)NC(=O)[C@H](CCSC)NC(=O)[C@H](CC(C)C)NC(=O)[C@H](Cc4c[nH]cn4)NC(=O)CNC(=O)[C@H](CCCCN)NC(=O)[C@H](CCCNC(=N)N)NC(=O)[C@H](CSSC[C@H](NC(=O)[C@H](Cc4ccc(O)cc4)NC(=O)[C@@H](NC(=O)[C@@H](NC(=O)[C@H](CC(C)C)NC(=O)[C@H](CC(=O)O)NC(=O)[C@H](CCCNC(=N)N)NC(=O)[C@@H](N)CC(C)C)C(C)C)CSSC[C@@H](C(=O)N[C@@H](CCCNC(=N)N)C(=O)O)NC3=O)C(=O)N[C@@H](CCCNC(=N)N)C(=O)N[C@@H]([C@@H](C)O)C(=O)N[C@@H](CCCNC(=N)N)C(=O)NCC(=O)N2)NC(=O)[C@H]([C@@H](C)O)NC(=O)CNC(=O)[C@H](CC(N)=O)NC1=O [cryptdin 2] (H-LRDLVCYCRTRGCKRRERMNGTCRKGHLMYTLCCR-OH; disulfide 6-34, 8-23, 13-33) | – | – | greater than 2 orders of magnitude | not bactericidal |
| CSCC[C@@H]1NC(=O)[C@H](CCCNC(=N)N)NC(=O)[C@H](CCC(=O)O)NC(=O)[C@H](CCCNC(=N)N)NC(=O)[C@H](CCCNC(=N)N)NC(=O)[C@H](CCCCN)NC(=O)[C@@H]2CSSC[C@@H]3NC(=O)[C@H](CC(C)C)NC(=O)[C@H]([C@@H](C)O)NC(=O)[C@H](Cc4ccc(O)cc4)NC(=O)[C@H](CCSC)NC(=O)[C@H](CC(C)C)NC(=O)[C@H](Cc4c[nH]cn4)NC(=O)CNC(=O)[C@H](CCCCN)NC(=O)[C@H](CCCNC(=N)N)NC(=O)[C@H](CSSC[C@H](NC(=O)[C@H](Cc4ccc(O)cc4)NC(=O)[C@@H](NC(=O)[C@@H](NC(=O)[C@H](CC(C)C)NC(=O)[C@H](CC(=O)O)NC(=O)[C@H](CCCNC(=N)N)NC(=O)[C@@H](N)CC(C)C)C(C)C)CSSC[C@@H](C(=O)N[C@@H](CCCNC(=N)N)C(=O)O)NC3=O)C(=O)N[C@@H](CCCNC(=N)N)C(=O)N[C@@H](CCCCN)C(=O)N[C@@H](CCCNC(=N)N)C(=O)NCC(=O)N2)NC(=O)[C@H]([C@@H](C)O)NC(=O)CNC(=O)[C@H](CC(N)=O)NC1=O [cryptdin 3] (H-LRDLVCYCRKRGCKRRERMNGTCRKGHLMYTLCCR-OH; disulfide 6-34, 8-23, 13-33) | 3-5 × | – | greater than 2 orders of magnitude | – |
